Test results as given in publication PMC11226401.

Target: MUC1-C subunit (human (endogenous in BT-549 and MDA-MB-468))
Test: co-IP; MDA-MB-468 cells; lysates precipitated with anti-MUC1-C or control IgG, Pierce Classic Magnetic Co-IP Kit; immunoblot of precipitates

- binding: binds
B1: non-POU domain-containing octamer-binding protein (NONO) (protein, UniProt Q15233 1-471)
chain: MQSNKTFNLEKQNHTPRKHHQHHHQQQHHQQQQQQPPPPPIPANGQQASSQNEGLTIDLKNFRKPGEKTFTQRSRLFVGNLPPDITEEEMRKLFEKYGKAGEVFIHKDKGFGFIRLETRTLAEIAKVELDNMPLRGKQLRVRFACHSASLTVRNLPQYVSNELLEEAFSVFGQVERAVVIVDDRGRPSGKGIVEFSGKPAARKALDRCSEGSFLLTTFPRPVTVEPMDQLDDEEGLPEKLVIKNQQFHKEREQPPRFAQPGSFEYEYAMRWKALIEMEKQQQDQVDRNIKEAREKLEMEMEAARHEHQVMLMRQDLMRRQEELRRMEELHNQEVQKRKQLELRQEEERRRREEEMRRQQEEMMRRQQEGFKGTFPDAREQEIRMGQMAMGGAMGINNRGAMPPAPVPAGTPAPPGPATMMPDGTLGLTPPTTERFGQAATMEGIGAIGGTPPAFNRAAPGAEFAPNKRRRY

Results are given in words; binding and its absence hold for the method and conditions named. Binding seen in cells or lysates may run through a third protein. Binding can be weak; no strength is given.
